The subject of the experiment is L1210 leukemia ip in BDF1 mice, survival T/C. Briefly: NCI In Vivo Anticancer Drug Screen. Data for tumor model L1210 Leukemia (intraperitoneal) in B6D2F1 (BDF1) mice. Particulars: T/C endpoint: mean survival time, higher T/C = longer survival.
Setting [1] is: dose: 200.0 mg/kg/injection, schedule: Q04DX003 (ip), vehicle: saline with Tween-80.
Where [2] appears, read: dose: 400.0 mg/kg/injection, schedule: Q04DX003 (ip), vehicle: saline with Tween-80.
[3] abbreviates: dose: 400.0 mg/kg/injection, schedule: Q01DX009 (ip), vehicle: Klucel (hydroxypropylcellulose) (HPC).
[4] abbreviates: dose: 400.0 mg/kg/injection, schedule: Q04DX003 (ip), vehicle: saline.
Where [5] appears, read: dose: 400.0 mg/kg/injection, schedule: Q01DX009 (ip), vehicle: saline.
Where [6] appears, read: dose: 200.0 mg/kg/injection, schedule: Q01DX009 (ip), vehicle: saline.
Where [7] appears, read: dose: 100.0 mg/kg/injection, schedule: Q01DX009 (ip), vehicle: saline.
The mark [8] stands for this setting: dose: 200.0 mg/kg/injection, schedule: Q01DX009 (ip), vehicle: Klucel (hydroxypropylcellulose) (HPC).
Setting [9] is: dose: 400.0 mg/kg/injection, schedule: Q01DX001 (ip), vehicle: saline.

The list is a part of this screen's results and no random one: it gathers tests that were run many times, whatever their T/C, doses with no T/C, and many T/C values between a quarter and a half above the control. Further doses and runs are listed elsewhere. T/C is the treated group as % of the vehicle group. Some doses have a count of surviving animals in place of a T/C: the source files T/C as zero there, which appears to mark a toxic dose or a test without result, not a measured value. Some survivor counts are full or nearly so, which does not show that the dose was tolerated: survival well below the control is almost never listed, so the zero probably covers shortened survival too. Counts of survivors are from the toxicity check (mostly the fifth day) where no day follows; animals may have died later. Schedule codes are those of the source, taken here to give the interval after Q, in days (D) or hours (H), and the number of doses after X. Some schedule codes hold Z or #, which are not explained here. Some entries were tested several times; the values are given in rising order. For survival time, the PubChem record calls one and a half times the control and up active, and a quarter to a half above the control has no call in these data; cut-offs in other NCI protocols can differ. Brackets with × say how often a value occurs here. Some T/C values are followed by the survivors on the day toxicity was checked, most often the fifth; where none is given, no animal had died by that day.

As to `COc1coc(CO)cc1=O`, the survivor count (dose: 200.0 mg/kg/injection, schedule: Q01DX009 (ip), vehicle: saline with Tween-80) is reported as 6 of 6.

On to `CC(=O)Nc1cccc(OCCC(=O)O)c1`, for which the survivor count is 6 of 6 (dose: 200.0 mg/kg/injection, schedule: Q01DX Z (ip), vehicle: methylcellulose (MC)); 6 of 6 (dose: 300.0 mg/kg/injection, schedule: Q01DX Z (ip), vehicle: methylcellulose (MC)); 6 of 6 (dose: 450.0 mg/kg/injection, schedule: Q01DX Z (ip), vehicle: methylcellulose (MC)); 6 of 6 (dose: 675.0 mg/kg/injection, schedule: Q01DX Z (ip), vehicle: methylcellulose (MC)).

Turning to `CC1(CBr)OCCCO1`, the survivor count is, setting by setting: (dose: 200.0 mg/kg/injection, schedule: Q04DX002 (ip), vehicle: saline with Tween-80) 2 of 3; (dose: 400.0 mg/kg/injection, schedule: Q04DX002 (ip), vehicle: saline with Tween-80) 0 of 3.

On to `ClCc1ccc(CCl)cc1`, for which, under “dose: 335.0 mg/kg/injection, schedule: Q04DX003 (ip), vehicle: Klucel (hydroxypropylcellulose) (HPC)”, the survivor count is 1 of 6.

Consider `NC1=NC(Cc2ccccc2)N(c2ccc(Cl)cc2)C(N)=N1` (stereo not drawn), for which the survivor count (dose: 200.0 mg/kg/injection, schedule: Q01DX001 (ip), vehicle: steroid suspending solution) was 1 of 6 and the survivor count (dose: 400.0 mg/kg/injection, schedule: Q01DX001 (ip), vehicle: steroid suspending solution) is 0 of 6.

`CC(C)C(CN)(CCCCN1CCCCC1)c1cccc2ccccc12` (stereo not drawn): the survivor count is given as 1 of 6 under setting [1] and 0 of 6 under setting [2].

For the compound `CCC1CN2CCc3cc(OC)c(OC)cc3C2CC1O` (stereo not drawn), the survivor count (dose: 400.0 mg/kg/injection, schedule: Q01DX009 (ip), vehicle: saline with Tween-80) was 0 of 6.

As for `CC1CCC(C(C)C)C(OC(=O)c2c([N+](=O)[O-])ccc([N+](=O)[O-])c2Br)C1` (stereo not drawn), the survivor count under setting [3] is 2 of 6.

For the compound `O=C(Nc1cccc2ccccc12)OC1CCCCC1Br` (stereo not drawn), for the setting “dose: 100.0 mg/kg/injection, schedule: Q01DX001 (ip), vehicle: saline with Tween-80”, the survivor count was 3 of 3.

On to `O=C(Nc1cccc(C2=NCCN2)c1)c1ccc(N=Nc2ccc(C(=O)Nc3cccc(C4=NCCN4)c3)cc2)cc1`, for which the survivor count (dose: 372.0 mg/kg/injection, schedule: Q01DX Z (ip), vehicle: water) is reported as 4 of 6.

On to `c1ccc(CN2CCC(N3CCCC3)CC2)cc1`, for which the survivor count under setting [4] was 1 of 6.

As for `C=CCOCC(O)CN(C)CC1CCCO1` (stereo not drawn), the survivor count reads like this: under setting [5], 0 of 6; under setting [4], 2 of 6.

Take `CC(Cl)(/N=N/C(C)(Cl)c1cccc(Cl)c1)c1ccc(Cl)cc1` (stereo not drawn): the survivor count is, setting by setting: under setting [1], 0 of 4; under setting [2], 1 of 4.

Take `CCOC(=O)C[n+]1ccccc1`: under setting [6], the survivor count was 0 of 6.

As to `NCc1ccc(OCc2nc(N)nc(N)c2-c2ccc(Cl)cc2)cc1`, the survivor count runs as follows: (dose: 200.0 mg/kg/injection, schedule: Q01DX001 (ip), vehicle: saline with Tween-80) 3 of 6; (dose: 400.0 mg/kg/injection, schedule: Q01DX001 (ip), vehicle: saline with Tween-80) 0 of 6.

On to `C/C(CCO)=N/N=C(N)N`, for which the survivor count is 4 of 6 (dose: 60.0 mg/kg/injection, schedule: Q01DX Z (ip), vehicle: methylcellulose (MC)); 1 of 6 (dose: 120.0 mg/kg/injection, schedule: Q01DX Z (ip), vehicle: methylcellulose (MC)); 4 of 6 (dose: 120.0 mg/kg/injection, schedule: Q01DX Z (oral), vehicle: methylcellulose (MC)); 4 of 6 (dose: 240.0 mg/kg/injection, schedule: Q01DX Z (oral), vehicle: methylcellulose (MC)).

With `N=C(N)Cc1ccc(NC(=O)c2ccc(C(=O)Nc3ccc(CC(=N)N)cc3)cc2)cc1`, the T/C is 131 % of control (dose: 7.5 mg/kg/injection, schedule: Q01DX Z (ip), vehicle: saline); 131 % of control (dose: 15.0 mg/kg/injection, schedule: Q01DX Z (ip), vehicle: methylcellulose (MC)); 140 % of control (dose: 15.0 mg/kg/injection, schedule: Q01DX Z (ip), vehicle: saline); 131 % of control (dose: 16.5 mg/kg/injection, schedule: Q01DX009 (ip), vehicle: saline); 126 % of control (dose: 25.0 mg/kg/injection, schedule: Q01DX009 (ip), vehicle: saline); 125 % of control (dose: 33.0 mg/kg/injection, schedule: Q01DX001 (ip), vehicle: carboxymethylcellulose (CMC)). In addition, the T/C is 127 % of control (dose: 33.0 mg/kg/injection, schedule: Q04DX003 (ip), vehicle: saline); 127 and 142 % of control (dose: 50.0 mg/kg/injection, schedule: Q01DX001 (ip), vehicle: carboxymethylcellulose (CMC)); 125, 128, 132 % of control (dose: 50.0 mg/kg/injection, schedule: Q04DX003 (ip), vehicle: saline); 138 % of control [4 of 6 alive] (dose: 75.0 mg/kg/injection, schedule: Q04DX003 (ip), vehicle: saline). Further, the survivor count (dose: 37.5 mg/kg/injection, schedule: Q01DX009 (ip), vehicle: saline) is 6 of 6; the survivor count (dose: 50.0 mg/kg/injection, schedule: Q01DX009 (ip), vehicle: saline) was 0 of 6; the survivor count (dose: 60.0 mg/kg/injection, schedule: Q01DX Z (ip), vehicle: saline) is given as 0 of 6; the survivor count (dose: 100.0 mg/kg/injection, schedule: Q01DX001 (ip), vehicle: carboxymethylcellulose (CMC)) is given as 1 of 4; the survivor count under setting [7] was 0 of 6; the survivor count (dose: 120.0 mg/kg/injection, schedule: Q01DX Z (ip), vehicle: saline) was 0 of 6. The survivor count is 0 of 4 (dose: 200.0 mg/kg/injection, schedule: Q01DX001 (ip), vehicle: carboxymethylcellulose (CMC)) and 0 of 4 (dose: 400.0 mg/kg/injection, schedule: Q01DX001 (ip), vehicle: carboxymethylcellulose (CMC)).

For the compound `O=C(O)c1cc2ccccc2cn1`, the survivor count (dose: 400.0 mg/kg/injection, schedule: Q04DX002 (ip), vehicle: saline) is given as 0 of 3.

For `CCCCN1C(=O)C2CC=C3C=CN4C(C3C2C1=O)C1C(=O)N(CCCC)C(=O)C1C41CC(=O)N(CCCC)C1=O` (stereo not drawn), the survivor count under setting [3] is 6 of 6.

As for `CC(C)NNC(=O)c1cccnc1`, under setting [7], the T/C was 97 (2×) and 100 % of control. In addition, the survivor count was 5 of 6 under setting [7]; 2 of 3 under setting [6]; 0 of 3 and 0 of 6 under setting [5].

`Cc1cc(S(=O)(=O)F)ccc1NC(=O)/C=C/c1ccc([N+](=O)[O-])cc1`: the survivor count under setting [8] is 6 of 6.

Turning to `CC1(C)N=C(N)N=C(N)N1c1cccc(OCCCOc2cccc([N+](=O)[O-])c2)c1`, the survivor count (dose: 100.0 mg/kg/injection, schedule: Q01DX001 (ip), vehicle: saline) was 1 of 6; the survivor count (dose: 200.0 mg/kg/injection, schedule: Q01DX001 (ip), vehicle: saline) is 0 of 6; the survivor count under setting [9] is given as 0 of 6.

In the case of `Cc1cc(S(=O)(=O)F)ccc1NC(=O)CCc1ccc(N2C(N)=NC(N)=NC2(C)C)cc1`, the survivor count (dose: 400.0 mg/kg/injection, schedule: Q01DX001 (ip), vehicle: Klucel (hydroxypropylcellulose) (HPC)) is given as 3 of 6.

Take `CCn1ncc2ccccc2c1=O`: the survivor count under setting [9] is recorded as 1 of 6.

As to `Cn1c(O)c(N)c(=O)n(C)c1=O`, the survivor count under setting [6] was 2 of 3.

Regarding `OCC1OC(n2cnc3c(=S)nc(NO)[nH]c32)C(O)C1O` (stereo not drawn), the T/C (dose: 25.0 mg/kg/injection, schedule: Q01DX005 (ip), vehicle: saline) is 129 % of control. Moreover, the survivor count (dose: 200.0 mg/kg/injection, schedule: Q01DX005 (ip), vehicle: saline) was 5 of 6.

As to `Cc1cc(C)c(-n2c(C)nc3ccccc3c2=O)c([N+](=O)[O-])c1`, the survivor count is reported as 0 of 6 under setting [8] and 0 of 6 under setting [3].

The values are drawn from PubChem BioAssay AID248 (DTP/NCI, 2004).
